Data from PMC3961180, “The Kil Peptide of Bacteriophage λ Blocks Escherichia coli Cytokinesis via ZipA-Dependent Inhibition of FtsZ Assembly” (PLoS Genetics, 2014).
Results are given in words; binding and its absence hold for the method and conditions named. A result given as binding can be weak or reduced; the word gives no strength.

Protein sequences, listed by entry. Tags and fused reporters are not part of them. Lines headed by an entry give the natural chain unless they say otherwise; changes in a name come on top. Residues count along the entry.
UniProt P03758: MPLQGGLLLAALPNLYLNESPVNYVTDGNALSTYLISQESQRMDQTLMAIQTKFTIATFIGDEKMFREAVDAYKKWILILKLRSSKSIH
UniProt P02769, residues 25-607: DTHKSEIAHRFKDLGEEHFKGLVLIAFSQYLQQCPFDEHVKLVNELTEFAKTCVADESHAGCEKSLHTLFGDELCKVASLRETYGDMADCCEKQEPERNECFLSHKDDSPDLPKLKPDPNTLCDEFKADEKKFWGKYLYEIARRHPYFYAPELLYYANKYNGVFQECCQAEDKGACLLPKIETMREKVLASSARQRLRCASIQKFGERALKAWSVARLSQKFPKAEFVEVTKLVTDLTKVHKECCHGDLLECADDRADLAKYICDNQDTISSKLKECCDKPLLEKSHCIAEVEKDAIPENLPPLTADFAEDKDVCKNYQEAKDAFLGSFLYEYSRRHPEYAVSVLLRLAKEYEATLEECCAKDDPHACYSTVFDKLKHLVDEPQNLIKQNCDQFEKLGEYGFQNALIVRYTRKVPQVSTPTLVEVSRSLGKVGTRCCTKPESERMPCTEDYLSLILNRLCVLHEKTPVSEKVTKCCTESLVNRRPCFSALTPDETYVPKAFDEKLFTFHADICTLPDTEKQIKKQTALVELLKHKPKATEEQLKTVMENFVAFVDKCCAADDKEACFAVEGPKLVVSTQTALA

B1: E. coli FtsZ (natural protein, UniProt P0A9A6 1-383, looked up)
chain: MFEPMELTNDAVIKVIGVGGGGGNAVEHMVRERIEGVEFFAVNTDAQALRKTAVGQTIQIGSGITKGLGAGANPEVGRNAADEDRDALRAALEGADMVFIAAGMGGGTGTGAAPVVAEVAKDLGILTVAVVTKPFNFEGKKRMAFAEQGITELSKHVDSLITIPNDKLLKVLGRGISLLDAFGAANDVLKGAVQGIAELITRPGLMNVDFADVRTVMSEMGYAMMGSGVASGEDRAEEAAEMAISSPLLEDIDLSGARGVLVNITAGFDLRLDEFETVGNTIRAFASDNATVVIGTSLDPDMNDELRVTVVATGIGMDKRPEITLVTNKQVQQPVMDRYQQHGMAPLTQEQKPVAKVVNDNAPQTAKEPDYLDIPAFLRKQAD
notes: cell division protein FtsZ, E. coli; expressed from pET11a-ftsZ (from H. Erickson); No tag is named for this construct; also called FtsZWT; source: E. coli BL21(DE3) pET11a-ftsZ (WM971), purified (successive 20% and 30% ammonium sulfate cuts)

Target: His6-FLAG-Kil (affinity-tagged Kil protein of bacteriophage λ) (bacteriophage λ) (UniProt P03758)
Experiment: pull-down; His6-FLAG-Kil (10 µM) held on α-FLAG M2 affinity resin; FtsZ 5 µM and/or His6-tagged ZipAC domains (WT and L286Q) 5 µM; 6 µM BSA in all samples; polymerization buffer (50 mM MES pH 6.5, 50 mM KCl, 2.5 mM MgCl2, 1 mM EGTA, 10% sucrose); room temperature, one to three hours; washed with 25 mL buffer; SDS-PAGE, Coomassie; both purified

Row | Molecule | binding
1 | Bovine serum albumin (from UniProt P02769 25-607) | no binding (tested: 6 µM)
2 | B1 | binds
